# Laboratory results: PubChem BioAssay AID1259405 (NCATS, 2018)
# Purpose: 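Knock-downs that lift recombinant protein yield in hamster ovary cells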 (primary screen)
# System: Chinese hamster CHO-K1 ovary cells with stable secreted eGFP expression
# Reagents: single siRNA against mouse genes, 0.8 pmol siRNA per well (2 µl of 400 nM stock)
# Timing: 3 days
# Measured: 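Percent of the per-plate non-targeting control median for intracellular GFP per well by laser scanning cytometry and for cell viability by ATP luminescence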
# Reading the numbers: GFP, % of control: higher = more GFP per well, higher productivity; viability (ATP), % of control: higher = more viable cells (more ATP)
# Active means: 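Called active when intracellular GFP, relative to negative control, is at or above 120%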
# Shown is one part, drawn at random, of about 50,000 reagents tested. About 4,000 of them (8%) count as active. 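Mouse siRNA library applied to hamster cells; one well for each siRNA.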 Reagents against one gene are numbered here.
gene,reagent,"GFP, % of control","viability (ATP), % of control",Call
Fn1 (fibronectin 1),1,69.8,74.5,inactive
Fn1 (fibronectin 1),2,119,87.8,inactive
Fn1 (fibronectin 1),3,76,59.8,inactive
Klb (klotho beta),1,91,76.7,inactive
Klb (klotho beta),2,61.1,96.3,inactive
Klb (klotho beta),3,59.2,45.2,inactive
Il17ra (interleukin 17 receptor A),1,63,84.5,inactive
Il17ra (interleukin 17 receptor A),2,86,61.1,inactive
Sstr4 (somatostatin receptor 4),1,74.5,87.2,inactive
Sstr4 (somatostatin receptor 4),2,48.8,63,inactive
Sstr4 (somatostatin receptor 4),3,47.8,45.9,inactive
Paxip1,1,122,92.5,active
Paxip1,2,81.7,42.1,inactive
Paxip1,3,95,113,inactive
Mff (mitochondrial fission factor),1,53.7,48.8,inactive
Mff (mitochondrial fission factor),2,111,101,inactive
Mff (mitochondrial fission factor),3,141,144,active
Or1e22 (olfactory receptor family 1 subfamily E member 22),1,42.6,56.4,inactive
Or1e22 (olfactory receptor family 1 subfamily E member 22),2,63.5,65,inactive
Or1e22 (olfactory receptor family 1 subfamily E member 22),3,92.9,116,inactive
Pdlim1 (PDZ and LIM domain 1 (elfin)),1,102,65.6,inactive
Pdlim1 (PDZ and LIM domain 1 (elfin)),2,80.8,79.3,inactive
Otof (otoferlin),1,63.3,76.1,inactive
Otof (otoferlin),2,105,72,inactive
Otof (otoferlin),3,85.7,77.7,inactive
"Daglb (diacylglycerol lipase, beta)",1,55.6,87.8,inactive
"Daglb (diacylglycerol lipase, beta)",2,128,107,active
"Daglb (diacylglycerol lipase, beta)",3,119,64.2,inactive
Nup35 (nucleoporin 35),1,103,81.7,inactive
Nup35 (nucleoporin 35),2,78.7,50.5,inactive
Nup35 (nucleoporin 35),3,67.5,40.4,inactive
Cdk19 (cyclin dependent kinase 19),1,71.2,79.8,inactive
Entpd5 (ectonucleoside triphosphate diphosphohydrolase 5),1,107,97.9,inactive
Entpd5 (ectonucleoside triphosphate diphosphohydrolase 5),2,53.6,54.9,inactive
Entpd5 (ectonucleoside triphosphate diphosphohydrolase 5),3,108,83.8,inactive
Or7g27 (olfactory receptor family 7 subfamily G member 27),1,62.1,30.4,inactive
Or7g27 (olfactory receptor family 7 subfamily G member 27),2,104,71,inactive
Or7g27 (olfactory receptor family 7 subfamily G member 27),3,64.6,48.3,inactive
Chn2 (chimerin 2),1,176,146,active
Chn2 (chimerin 2),2,111,97.2,inactive
Chn2 (chimerin 2),3,70.7,81.5,inactive
"Zfyve28 (zinc finger, FYVE domain containing 28)",1,22.1,18.1,inactive
"Zfyve28 (zinc finger, FYVE domain containing 28)",2,45.1,72.2,inactive
"Zfyve28 (zinc finger, FYVE domain containing 28)",3,119,73.1,inactive
Mesd (mesoderm development LRP chaperone),1,97.6,89.3,inactive
Mesd (mesoderm development LRP chaperone),2,40.2,81.3,inactive
Mesd (mesoderm development LRP chaperone),3,104,66.4,inactive
Shd (src homology 2 domain-containing transforming protein D),1,115,72.9,inactive
Shd (src homology 2 domain-containing transforming protein D),2,44.7,48.7,inactive
Shd (src homology 2 domain-containing transforming protein D),3,60.3,75.6,inactive
"Scarb1 (scavenger receptor class B, member 1)",1,113,123,inactive
"Scarb1 (scavenger receptor class B, member 1)",2,74.6,69.8,inactive
"Scarb1 (scavenger receptor class B, member 1)",3,63.2,93.6,inactive
Galnt11 (polypeptide N-acetylgalactosaminyltransferase 11),1,86.3,126,inactive
Galnt11 (polypeptide N-acetylgalactosaminyltransferase 11),2,76.9,113,inactive
Galnt11 (polypeptide N-acetylgalactosaminyltransferase 11),3,120,124,active
Syt2 (synaptotagmin II),1,98.7,105,inactive
Syt2 (synaptotagmin II),2,65.2,71.4,inactive
Akap9 (A kinase anchor protein 9),1,20.2,17.5,inactive
Akap9 (A kinase anchor protein 9),2,92.7,64.6,inactive
Akap9 (A kinase anchor protein 9),3,106,106,inactive
Mterf3 (mitochondrial transcription termination factor 3),1,61.2,98.5,inactive
Mterf3 (mitochondrial transcription termination factor 3),2,69.3,56.5,inactive
Mterf3 (mitochondrial transcription termination factor 3),3,45.1,120,inactive
Chchd7 (coiled-coil-helix-coiled-coil-helix domain containing 7),1,87.6,88.3,inactive
Chchd7 (coiled-coil-helix-coiled-coil-helix domain containing 7),2,29.6,74.4,inactive
Chchd7 (coiled-coil-helix-coiled-coil-helix domain containing 7),3,80.1,83.8,inactive
Or14a260 (olfactory receptor family 14 subfamily A member 260),1,39.6,34.4,inactive
Or14a260 (olfactory receptor family 14 subfamily A member 260),2,79.9,65.8,inactive
Or14a260 (olfactory receptor family 14 subfamily A member 260),3,111,97.5,inactive
Foxp2 (forkhead box P2),1,31.5,66.5,inactive
Foxp2 (forkhead box P2),2,86.9,110,inactive
Tcstv3 (2 cell stage variable group member 3),1,105,121,inactive
Tcstv3 (2 cell stage variable group member 3),2,84,93.4,inactive
Tcstv3 (2 cell stage variable group member 3),3,189,110,active
Uroc1 (urocanase domain containing 1),1,56.5,28.6,inactive
Uroc1 (urocanase domain containing 1),2,55,78.1,inactive
Uroc1 (urocanase domain containing 1),3,114,131,inactive
Zfp579 (zinc finger protein 579),1,102,54.5,inactive
Zfp579 (zinc finger protein 579),2,87.7,86.2,inactive
"Tnni3 (troponin I, cardiac 3)",1,101,77.3,inactive
"Tnni3 (troponin I, cardiac 3)",2,106,86.4,inactive
Ptprd (protein tyrosine phosphatase receptor type D),1,91.3,64.3,inactive
Ptprd (protein tyrosine phosphatase receptor type D),2,54.2,35.9,inactive
Ptprd (protein tyrosine phosphatase receptor type D),3,118,114,inactive

Entries listed above called active:
gene,reagent,"GFP, % of control","viability (ATP), % of control",Call
Paxip1,1,122,92.5,active
Mff (mitochondrial fission factor),3,141,144,active
"Daglb (diacylglycerol lipase, beta)",2,128,107,active
Chn2 (chimerin 2),1,176,146,active
Galnt11 (polypeptide N-acetylgalactosaminyltransferase 11),3,120,124,active
Tcstv3 (2 cell stage variable group member 3),3,189,110,active
